The values that follow come from publication doi:10.1101/2024.03.11.584206.

These are yes or no findings as the source states them, for the method shown. Binding seen in cells or lysates may run through a third protein. These calls come from enrichment with a bait or labelling near it, and not all partners need be listed.

For this assay, the target named is T1, PLPPR3 pS351 phospho-peptide (LKRApSVDVDLLA).
T1 sequence (peptide, phosphoserine at S351 (fifth residue of the peptide, printed pS)): LKRASVDVDLLA
The experiment in a line: affinity purification with mass spectrometry.

B1: brain acid soluble protein 1 (BASP1), endogenous in adult mouse brain lysate (protein, UniProt Q91XV3 1-226)
chain: MGGKLSKKKKGYNVNDEKAKDKDKKAEGAGTEEEGTPKESEPQAAADATEVKESTEEKPKDAADGEAKAEEKEADKAAAAKEEAPKAEPEKSEGAAEEQPEPAPAPEQEAAAPGPAAGGEAPKAGEASAESTGAADGAAPEEGEAKKTEAPAAAGPEAKSDAAPAASDSKPSSAEPAPSSKETPAASEAPSSAAKAPAPAAPAAAEPQAEAPAAAASSEQSVAVKE
B1: the binding result is “binds”.
